Reference: paper PMC10823689
These are yes or no findings as the source states them, for the method shown. Binding seen in cells or lysates may run through a third protein. For some of these results: A result given as binding can be weak or reduced; the word gives no strength.

Tests used:
[1] = molecular target: T1, PRDX6 (overexpression plasmid, HEK293T) (UniProt O35244); experiment: co-IP; HEK293T cells transfected with overexpression plasmids (PRDX6, ERK, P38 or negative control), 48 h; co-immunoprecipitation and western blot
T1 sequence: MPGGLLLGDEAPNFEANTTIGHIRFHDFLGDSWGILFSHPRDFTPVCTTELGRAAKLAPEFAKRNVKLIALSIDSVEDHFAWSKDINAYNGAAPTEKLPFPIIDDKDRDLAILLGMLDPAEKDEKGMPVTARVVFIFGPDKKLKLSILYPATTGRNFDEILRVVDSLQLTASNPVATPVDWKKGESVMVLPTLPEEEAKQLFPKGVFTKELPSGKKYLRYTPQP

[2] = molecular target: T2, Peroxiredoxin 6 (PRDX6) (rat (endogenous in CTX-TNA2)) (UniProt O35244); experiment: condition: only cells treated with U0126 (10 µM) after OGD; co-IP; lysates of wild-type CTX-TNA2 cells after OGD/R treated with U0126 (10 µM); western blot
T2 sequence: T1 sequence

[3] = molecular target: T2, Peroxiredoxin 6 (PRDX6) (rat (endogenous in CTX-TNA2)); experiment: co-IP; lysates of wild-type CTX-TNA2 cells, control and after OGD/R; antibodies precoupled to protein G beads, overnight 4 °C; western blot

Row | binding [1] | binding [2] | binding [3] | Substance
1 | binds |  |  | ERK (overexpression plasmid, HEK293T)
2 |  | no binding | binds | ERK (rat (endogenous in CTX-TNA2))
3 | binds |  |  | P38 (overexpression plasmid, HEK293T)
